About 170 (0.05%) of roughly 340,000 compounds were called active. The inconclusive results got no clear call from the source; some entries with a clear call stand among them for comparison. Calls come from the whole dose curve; as a rule, active = well fitted inhibition curve with a large enough effect in the signal ratio, with a control signal flat (not every such curve was filed as active); inconclusive = small, poorly fitted or top-dose-only effect, or effect the other way, or a change in a side signal; inactive = flat fitted curve, though single readings scatter; the % refers to the signal ratio. Where the call is inconclusive, the potency comes from a doubtful curve fit.
Assay: qHTS Assay to Find Inhibitors of Chronic Active B-Cell Receptor Signaling;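 for activity change, negative = inhibition: plate controls were basal doxycycline-induced cells for no effect and cells given 10 µM MG132 for full effect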
Conditions: ABC-DLBCL IkBa-CBG/CBR reporter, luminescence ratio (green luciferase fused to IkBa over red control in TMD8 lymphoma cells), 4 h; activity change, negative = inhibition: at 46.1 µM (top of the series)
Procedure, shortened: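 TMD8 ABC-DLBCL cells carrying doxycycline-inducible green luciferase fused to IkappaBalpha plus unfused red luciferase were exposed to compounds (up to 46 uM) for 4 hrs at 37C. Activity came from the overlap-corrected green/red luminescence ratio.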
Potency is the fitted concentration of half-maximal effect.

Structure (SMILES) | Potency | activity change, negative = inhibition
COC(=O)/C(=C(/F)Sc1cc(C)c(O)c(C)c1)C(F)(F)F | inconclusive: 5.17 µM [rising, partial curve, poor fit] | 
CC(C)Cn1nc(NC(=O)C2CCCO2)c2cc3ccccc3nc21 (configuration not stated) |  | inconclusive: 3.29%
CCOC(=O)C1CCN(C(=O)CSc2nc3ncccc3[nH]2)CC1 |  | inconclusive: -3.7%
COC(=O)CSc1nc(COc2ccccc2)nc2ccccc12 |  | inconclusive: -10.8%
O=C(O)C1CC=CCC1C(=O)Nc1ccc(F)c(F)c1 (configuration not stated) |  | inconclusive: 10.8%
CC(=O)c1c(C)[nH]c(C(=O)OCc2ccccc2F)c1C |  | inconclusive: -1.06%
O=C(N/N=C/c1ccc([N+](=O)[O-])s1)C(O)c1ccccc1 (configuration not stated) |  | inconclusive: -5.74%
CC(Oc1ccc(Cl)cc1)C(=O)NCCCn1ccnc1 (configuration not stated) |  | inactive: 21.3%
O=[N+]([O-])c1ccc2c(c1)nnn2-c1ccccc1 |  | inconclusive: 10.5%
O=S(=O)(c1ccc(N2CCOCC2)c(Cl)c1)N1CCOCC1 | inconclusive: 14.1 µM [falling, single point] | 
COc1cccc(NC(=O)CN(C)C(=O)c2cccc(S(=O)(=O)N3c4ccccc4CC3C)c2)c1 (configuration not stated) |  | inactive: -11.9%
O=C(NCCCn1ccnc1)c1cc2nc(-c3ccc(Br)cc3)cc(C(F)(F)F)n2n1 |  | inconclusive: 6.05%
O=C(CSc1ccsc1[N+](=O)[O-])NC1CCCC1 |  | inactive: 7.8%
CC(NC(=O)COC(=O)CCC(=O)c1ccc(Cl)cc1)c1ccccc1 (configuration not stated) |  | inconclusive: 22.3%
COc1ccc(C(=O)Nc2cc(Cl)ccc2Cl)c(OC)n1 |  | inconclusive: 23.9%
COc1ccc(NS(=O)(=O)c2cc(NC(=O)[C@@H](NC(N)=O)C(C)C)ccc2C)cc1 |  | inconclusive: -5.8%
COCCn1c(C)cc(C(=O)COC(=O)c2ccc(NC(=O)CC#N)cc2)c1C | inconclusive: 29.1 µM [falling, single point] | 
COc1cccc(C2c3[nH]c4ccccc4c3C[C@H]3C(=O)N(c4ccccc4C(=O)N4CCC(C(=O)O)CC4)C(=O)N23)c1 (some centres not stated) |  | inconclusive: 14%
C=C(C(=O)c1ccccc1)C(C)C(=C)C(=O)c1ccccc1 |  | inconclusive: 2.39%
COc1cccc(NC(=O)[C@@H](NC(=O)N2CCn3c2nc2ccccc23)C(C)C)c1 |  | inconclusive: -17%
N#CC1=C(N)Oc2cc(N)ccc2C1C1CC=CCC1 (configuration not stated) | inconclusive: 14.1 µM [falling, partial curve, poor fit] | 

Structure (SMILES) | Potency | activity change, negative = inhibition
Cc1nc(-c2ccc(S(=O)(=O)Oc3ccc(Cl)cc3Cl)s2)cs1 |  | inactive: 12.2%
O=C1c2ccccc2C(=O)N1CN(C(=O)COc1ccccc1)c1ccc(F)cc1 |  | inconclusive: -0.7%
CC(c1ccccc1)N(C)C(=O)CSc1nnc(C2CC2)n1C1CC1 (configuration not stated) |  | inactive: -3.21%
O=S(=O)(NCC(c1cccnc1)N1CCN(c2ccc(F)cc2)CC1)c1ccc(F)cc1 (configuration not stated) |  | inconclusive: -2.52%
CCN1C(=NCCN2CCOCC2)N[C@@H](c2ccccc2)C(C(=O)OC)=C1C |  | inconclusive: -2.77%
CCc1cc2c(=O)c(-c3cnn(-c4ccccc4)c3)c(C)oc2cc1OCC(=O)Nc1cccc(C)c1 |  | inconclusive: 3.24%
O=C(CNC(=O)OCc1ccccc1)Nc1ccc(F)cc1 |  | inconclusive: 4.78%
OC1(CN2CCOCC2)C2CN3CCN(C2)CC1(c1ccccc1)C3 (configuration not stated) |  | inactive: 0.108%
NC1=NC(=O)S/C1=C\c1ccc(F)cc1 |  | inconclusive: -13.5%
Cc1ccc(N/C(C(Cl)=C(Cl)Cl)=C(/Cl)[N+](=O)[O-])c(C)c1 |  | inactive: -8.92%
COc1cccc(-c2noc(CCC(=O)N3CCN(c4cc(C)ccc4C)CC3)n2)c1 |  | inactive: -9.47%
CCc1ccc(N2C(=O)CN(Cc3cccs3)C2=S)cc1 |  | inactive: -0.692%
N#Cc1ccc(OCC(=O)OCC(=O)Nc2sccc2C(N)=O)cc1 |  | inactive: -2.14%
COc1cccc(C(=O)N[C@@H](C)C(=O)N2CCC3(CC2)NCCc2[nH]cnc23)c1 | inconclusive: 35.5 µM [falling, partial curve, poor fit] | 
CC1=C(C(=O)OCc2ccccc2)C(c2ccc([N+](=O)[O-])cc2)NC(=O)N1 (configuration not stated) |  | inconclusive: -10.8%
S=C(N/N=C/c1ccc(Br)cc1)N1CCCCC1 | inconclusive: 25.1 µM [falling, single point] | 
COc1ccc(-c2n[nH]c(C)c2-c2cnn(-c3ccccc3)c2)c(O)c1 |  | inconclusive: -12.6%
CCC(=O)N1CCc2cc(-c3csc(NC(=O)c4ccco4)n3)ccc21 |  | inconclusive: 3.33%
Cc1ccc(-n2nc3c(=O)n(CC(=O)NCCc4ccccc4C)nc(C)c3c2C)cc1 |  | inactive: -1.43%
Cc1ccc(-c2nn(-c3ccccc3)cc2/C=C/C(=O)OCC(=O)NC2CC2)o1 |  | inactive: -7.38%
COC(=O)c1cccc(S(=O)(=O)N2CCN(c3nc4ccccc4s3)CC2)c1 |  | inactive: 5.56%

Structure (SMILES) | Potency | activity change, negative = inhibition
CC(=O)c1c(C)[nH]c(C(=O)Nc2cccc(S(=O)(=O)N(C)C)c2)c1C |  | inactive: 0.439%
Oc1[nH]c2c(Cl)cc(Cl)cc2c1N=NC(=S)NCC1CCCO1 (configuration not stated) | inconclusive: 4.61 µM [falling, full curve] | 
Cc1ccc(C)c(NC(=S)NC(NC(=O)Cc2cccc3ccccc23)C(Cl)(Cl)Cl)c1 (configuration not stated) |  | inconclusive: 19.7%
NC(=O)c1ccc(-c2noc(-c3ccccc3F)n2)cc1 | inconclusive: 18.4 µM [falling, partial curve] | 
CC(=O)Nc1ccc(S(=O)(=O)NC2C3(C)CCC(C3)C2(C)C)cc1 (configuration not stated) |  | inactive: 0.944%
O=C(Nc1ccc(O)c(-c2nc3ccccc3s2)c1)c1cccs1 |  | inconclusive: -6.65%
COc1ccc(NS(=O)(=O)c2cccc(C(=O)OCC(=O)N3CCN(c4ccc(OC)cc4)CC3)c2)cc1 |  | inactive: 22%
Cc1cnc(NC(=O)CSc2nc3ccccc3c(=O)[nH]2)s1 | inconclusive: 20.6 µM [falling, single point] | 
O=C1OC(N2C(=O)CC[C@H]2C(=O)Nc2cccc(F)c2)c2ccccc21 (some centres not stated) |  | inactive: -0.0328%
COC(=O)CSc1nnc(NC(=O)c2ccc3c(c2)OCO3)s1 |  | inactive: 7.76%
O=C(NNC(=O)c1cccs1)c1ccc2ccccc2c1 | inconclusive: 35.5 µM [rising, single point] | 
Cc1nn(-c2ccccc2)c(C)c1/C=N/N1CCN(c2ccccc2)CC1 |  | inconclusive: 0.888%
O=C1CN(C(=O)/C=C/c2cccc(Cl)c2)c2ccccc2N1 |  | inconclusive: 3.87%
C=CCNC(=O)/C(C#N)=C/c1cc(Br)ccc1OC | inconclusive: 31.6 µM [falling, single point] | 
CCOc1ccc(S(=O)(=O)NCCOC)cc1C |  | inconclusive: 6.26%
COc1cc(CC(=O)Nc2cccc(SC)c2)cc(OC)c1OC |  | inactive: -7.97%
CCN(CC(=O)N1CCOCC1)S(=O)(=O)c1cc(Cl)ccc1Cl |  | inconclusive: 4.36%
Cc1c(C(=O)NCc2ccccn2)oc2ccc(S(=O)(=O)N3CCC4(CC3)OCCO4)cc12 |  | inconclusive: 2.53%
CCCC(=O)Nc1sc(C(=O)Nc2cccc(N)c2)c(C)c1C(=O)OC | inconclusive: 7.08 µM [falling, partial curve, poor fit] | 
CCOC(=O)C1CCN(C(=O)CSc2cc(=O)n(C)c3ccccc23)CC1 |  | inconclusive: -0.236%
NS(=O)(=O)c1ccc(N=Nc2c(O)ccc3ccccc23)cc1 |  | inconclusive: 4.79%

Record cards, from the list above:
COC(=O)c1cccc(S(=O)(=O)N2CCN(c3nc4ccccc4s3)CC2)c1 in the list: activity change, negative = inhibition: inactive: 5.56%
CC1=C(C(=O)OCc2ccccc2)C(c2ccc([N+](=O)[O-])cc2)NC(=O)N1 (configuration not stated) in the list: activity change, negative = inhibition: inconclusive: -10.8%
Cc1nn(-c2ccccc2)c(C)c1/C=N/N1CCN(c2ccccc2)CC1 in the list: activity change, negative = inhibition: inconclusive: 0.888%
O=S(=O)(c1ccc(N2CCOCC2)c(Cl)c1)N1CCOCC1 in the list: Potency: inconclusive: 14.1 µM [falling, single point]

Additional records follow.

Structure (SMILES) | Potency | activity change, negative = inhibition
C/C(=C\C(=O)c1ccc(Br)cc1)Nc1ccc(Cl)cc1 |  | inconclusive: 6.16%
Cn1cc(C(=O)N/N=C/C(Br)=C/c2ccccc2)ccc1=O |  | inconclusive: -2.18%
Cc1cc(C(=O)Nc2ccccc2C(=O)O)ccc1NC(=O)COc1cccc(C)c1C |  | inconclusive: -0.21%
CCN(Cc1ccccc1)S(=O)(=O)c1cc(C(=O)O)ccc1OC | inconclusive: 11.2 µM [falling, partial curve] | 
CCOCCCN(C(=O)CNC(=O)c1ccco1)C(C(=O)NC1CCCC1)c1ccccc1C (configuration not stated) |  | inconclusive: 7.92%
CN1CCN(c2ncnc3c2c(-c2ccccc2)cn3-c2ccc(F)cc2)CC1 | inconclusive: 15.8 µM [falling, single point] | 
CC1CCC(CN2C(Nc3ccccc3)=NC[C@@H]2Cc2ccccc2)CC1 (some centres not stated) |  | inconclusive: -2.28%
Fc1ccccc1/C=N/Nc1nc(-c2ccccn2)nc2ccccc12 |  | inconclusive: 1.21%
CC(=O)c1ccc(NC(=O)CSc2nc3nc(C)cc(C)n3n2)cc1 |  | inconclusive: 5.6%
O=C(/C=C/c1ccco1)N/C(=C\c1ccco1)C(=O)NCCc1nc2ccccc2[nH]1 |  | inconclusive: -10.5%
CC(=O)Nc1c(C)cc(OCC(=O)O)cc1C |  | inconclusive: 11%
FC(F)(F)c1ccc2c3n(nc2c1)CCN=C3c1ccc(Cl)cc1 |  | inconclusive: -10.2%
COc1ccc(N(CC(=O)NCCC2=CCCCC2)S(=O)(=O)c2ccccc2F)cc1 |  | inconclusive: 0.177%
COc1ccc(NS(=O)(=O)c2ccc3oc(SC(C)C(N)=O)nc3c2)cc1 (configuration not stated) |  | inactive: -2.17%
CN(C(=O)COc1ccccc1)c1nnc(-c2cccnc2)s1 | inconclusive: 29.1 µM [falling, single point] | 
COC(=O)N/N=C/c1ccc(-c2ccc(C)c(Cl)c2)o1 |  | inconclusive: 0.0624%
O=C(Cc1coc2cc3c(cc12)CCC3)OCc1cc(=O)n2c(n1)sc1ccccc12 |  | inconclusive: -3.76%
CCc1ccc(OCC(=O)c2c(O)c3ccccc3oc2=O)cc1 | inconclusive: 10 µM [falling, partial curve] | 
O=C(O)CCCN1C(=O)/C(=C\c2ccco2)SC1=S | inconclusive: 11.2 µM [rising, single point] | 

Reference: PubChem BioAssay AID493014 (National Center for Advancing Translational Sciences (NCATS), 2011)
